Experimental findings from article PMC10202959 are described below.

Amino acid sequences for entries named in this document (tags omitted). Residues count along the entry.
UniProt P24821, residues 23-2201: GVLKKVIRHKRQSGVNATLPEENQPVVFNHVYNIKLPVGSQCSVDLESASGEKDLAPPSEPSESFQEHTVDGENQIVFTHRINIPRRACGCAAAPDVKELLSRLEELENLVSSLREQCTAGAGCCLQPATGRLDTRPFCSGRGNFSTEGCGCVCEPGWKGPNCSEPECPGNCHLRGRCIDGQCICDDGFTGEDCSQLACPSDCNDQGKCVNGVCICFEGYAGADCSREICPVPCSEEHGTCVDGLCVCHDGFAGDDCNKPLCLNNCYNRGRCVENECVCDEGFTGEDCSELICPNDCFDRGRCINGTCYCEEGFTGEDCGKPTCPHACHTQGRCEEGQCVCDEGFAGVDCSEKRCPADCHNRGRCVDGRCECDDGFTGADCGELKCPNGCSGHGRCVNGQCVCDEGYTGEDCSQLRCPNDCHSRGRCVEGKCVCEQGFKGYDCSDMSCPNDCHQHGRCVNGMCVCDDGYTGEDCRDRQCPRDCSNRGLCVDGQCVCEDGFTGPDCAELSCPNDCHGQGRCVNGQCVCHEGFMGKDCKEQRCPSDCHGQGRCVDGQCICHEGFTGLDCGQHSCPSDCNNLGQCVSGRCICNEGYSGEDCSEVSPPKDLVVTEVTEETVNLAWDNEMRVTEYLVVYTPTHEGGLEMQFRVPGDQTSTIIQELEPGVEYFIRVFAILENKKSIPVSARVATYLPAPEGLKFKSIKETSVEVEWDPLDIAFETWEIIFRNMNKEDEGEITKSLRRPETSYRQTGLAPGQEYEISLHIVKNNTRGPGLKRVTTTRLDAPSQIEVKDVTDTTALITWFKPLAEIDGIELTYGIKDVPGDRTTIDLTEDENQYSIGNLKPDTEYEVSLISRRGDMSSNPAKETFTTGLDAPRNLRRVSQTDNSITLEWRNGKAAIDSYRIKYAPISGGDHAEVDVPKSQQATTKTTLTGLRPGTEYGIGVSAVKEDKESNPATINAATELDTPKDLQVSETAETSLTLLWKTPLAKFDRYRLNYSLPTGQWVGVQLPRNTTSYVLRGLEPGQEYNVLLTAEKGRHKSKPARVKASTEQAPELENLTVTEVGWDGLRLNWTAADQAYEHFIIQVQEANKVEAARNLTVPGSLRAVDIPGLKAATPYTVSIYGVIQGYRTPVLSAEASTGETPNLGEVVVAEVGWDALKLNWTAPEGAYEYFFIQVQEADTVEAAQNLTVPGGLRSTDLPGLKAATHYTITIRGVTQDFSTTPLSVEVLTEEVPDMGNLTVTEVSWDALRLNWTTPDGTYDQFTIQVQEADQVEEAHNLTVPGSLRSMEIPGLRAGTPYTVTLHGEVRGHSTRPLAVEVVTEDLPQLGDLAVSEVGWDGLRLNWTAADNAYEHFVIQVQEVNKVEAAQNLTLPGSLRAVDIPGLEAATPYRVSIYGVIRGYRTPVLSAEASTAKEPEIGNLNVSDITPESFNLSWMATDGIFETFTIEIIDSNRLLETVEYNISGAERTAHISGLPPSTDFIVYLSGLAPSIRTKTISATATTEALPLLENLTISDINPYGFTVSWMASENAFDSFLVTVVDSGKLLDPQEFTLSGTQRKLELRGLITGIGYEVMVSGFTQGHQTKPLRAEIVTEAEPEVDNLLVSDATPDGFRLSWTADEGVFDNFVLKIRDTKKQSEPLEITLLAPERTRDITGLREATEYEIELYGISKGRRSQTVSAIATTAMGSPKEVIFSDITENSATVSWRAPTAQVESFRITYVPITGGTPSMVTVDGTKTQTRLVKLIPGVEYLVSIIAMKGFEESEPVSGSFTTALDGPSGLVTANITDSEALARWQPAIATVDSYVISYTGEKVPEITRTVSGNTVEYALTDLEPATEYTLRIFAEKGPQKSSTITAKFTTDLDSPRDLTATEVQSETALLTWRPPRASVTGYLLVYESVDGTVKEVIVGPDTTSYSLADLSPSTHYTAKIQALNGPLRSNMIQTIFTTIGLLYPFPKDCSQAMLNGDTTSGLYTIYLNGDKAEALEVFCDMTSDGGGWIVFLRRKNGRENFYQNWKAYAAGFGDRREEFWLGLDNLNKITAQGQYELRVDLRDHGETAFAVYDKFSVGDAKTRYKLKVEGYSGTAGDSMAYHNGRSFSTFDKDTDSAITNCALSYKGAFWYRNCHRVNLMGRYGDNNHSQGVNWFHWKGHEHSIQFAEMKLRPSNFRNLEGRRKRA
UniProt P04004, residues 20-478: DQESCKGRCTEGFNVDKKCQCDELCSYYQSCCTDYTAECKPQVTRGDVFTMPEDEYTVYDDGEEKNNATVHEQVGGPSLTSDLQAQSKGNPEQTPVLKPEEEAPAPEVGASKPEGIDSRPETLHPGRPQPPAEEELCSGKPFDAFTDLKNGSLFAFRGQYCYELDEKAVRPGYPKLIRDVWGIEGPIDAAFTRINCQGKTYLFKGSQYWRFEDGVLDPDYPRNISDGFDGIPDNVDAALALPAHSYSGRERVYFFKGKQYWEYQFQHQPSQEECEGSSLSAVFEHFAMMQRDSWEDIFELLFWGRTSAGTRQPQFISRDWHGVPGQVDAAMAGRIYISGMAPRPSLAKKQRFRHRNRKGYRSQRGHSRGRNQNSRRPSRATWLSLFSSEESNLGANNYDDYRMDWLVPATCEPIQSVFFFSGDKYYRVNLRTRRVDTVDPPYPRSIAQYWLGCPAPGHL

No constants are given. Whether binding was seen depends on the method and setting. Some entries that bind do so weakly or less than the wild type. Where a sequence is shown, tags or fusion partners need not be part of it.

The target of assay [1] is human tenascin C (human) (UniProt P24821). Nature of the assay: ELISA; plates coated with 100 nM ECM protein in PBS; PDGF-BB or IL-1Ra variants at increasing concentrations in PBS-T with 0.1% BSA, 1 h at room temperature; detected with biotinylated antibodies; KD from a one site specific binding model; both purified. A general note: ELISA stands for enzyme-linked immunosorbent assay.

Assay [2] deals with human vitronectin (human) (UniProt P04004). The description is as above.

B1: interleukin-1 receptor antagonist (IL-1Ra), wild type (ligand, UniProt P25085 27-178)
chain: RPSGKRPCKMQAFRIWDTNQKTFYLRNNQLIAGYLQGPNIKLEEKIDMVPIDLHSVFLGIHGGKLCLSCAKSGDDIKLQLEEVNITDLSKNKEEDKRFTFIRSEKGPTTSFESAACPGWFLCTTLEADRPVSLTNTPEEPLIVTKFYFQEDQ
B1: the binding result in assay [1] and in assay [2] was “binds” each time.
